In PubChem BioAssay AID720504 (National Center for Advancing Translational Sciences (NCATS), 2013):
In all, about 360,000 compounds went through this assay and about 10,000 (2.8%) were called active. The inconclusive results got no clear call from the source; some entries with a clear call stand among them for comparison. Calls come from the whole dose curve; as a rule, active = well fitted inhibition curve with a large enough effect; inconclusive = small, poorly fitted or top-dose-only effect; inactive = flat fitted curve, though single readings scatter. Potencies of inconclusive entries are doubtful fits and often do not repeat.
% is set by controls: 0 for no effect and ±100 for the full control effect; potency is the fitted concentration of half-maximal effect.
Note: nearly all actives have a fitted effect of over 65% in size.
Throughout, for max response, negative = inhibition: series mostly up to about 57 µM.

Protein sequences, listed by entry. Tags and fused reporters are not part of them.
UniProt P53350, whole entry, looked up: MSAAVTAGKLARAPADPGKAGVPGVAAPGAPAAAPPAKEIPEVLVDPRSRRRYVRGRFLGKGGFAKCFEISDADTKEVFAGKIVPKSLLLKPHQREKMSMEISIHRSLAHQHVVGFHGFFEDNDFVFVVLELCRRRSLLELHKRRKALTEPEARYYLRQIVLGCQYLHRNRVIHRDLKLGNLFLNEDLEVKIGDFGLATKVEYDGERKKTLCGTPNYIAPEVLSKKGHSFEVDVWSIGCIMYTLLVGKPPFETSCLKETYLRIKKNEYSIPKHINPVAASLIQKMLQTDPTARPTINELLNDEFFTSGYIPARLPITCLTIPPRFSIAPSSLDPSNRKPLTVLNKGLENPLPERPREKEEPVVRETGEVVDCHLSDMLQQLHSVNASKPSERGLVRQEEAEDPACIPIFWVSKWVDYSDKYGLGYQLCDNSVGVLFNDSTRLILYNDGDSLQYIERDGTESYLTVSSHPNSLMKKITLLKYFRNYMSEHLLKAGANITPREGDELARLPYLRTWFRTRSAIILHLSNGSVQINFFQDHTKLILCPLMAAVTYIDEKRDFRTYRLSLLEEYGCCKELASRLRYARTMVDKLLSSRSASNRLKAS

What follows are molecules tested against Serine/threonine-protein kinase PLK1 (Homo sapiens) (UniProt P53350) (assay: qHTS for Inhibitors of PLK1-PDB (polo-like kinase 1 - polo-box domain): Primary Screen). Settings: Plk1 PBD binding of FITC phosphopeptide, fluorescence polarization.
With CN(CC(=O)Nc1ccc(Cl)cc1)C(=O)c1ccc(S(=O)(=O)Nc2ccccc2)cc1 the max response, negative = inhibition was inactive: -6.81%. In the case of Nc1nc(SCC(=O)N2CCCC2)[nH]c(=O)c1-c1ccccc1, the Potency is reported as active: 6.7 µM. With O=C(N/N=C/c1ccc([N+](=O)[O-])cc1)c1cccc(N2CCCC2=O)c1 the max response, negative = inhibition was inactive: -5.43%. For COc1ccc(C(=O)O)cc1S(=O)(=O)NC(C)C, the Potency was inconclusive: 37.7 µM [inhibitor, single point]. With Fc1ccccc1CSc1ncnc2sc3c(c12)CCCC3 the Potency was inconclusive: 23.8 µM [inhibitor, single point]. COC(=O)c1ccc(C(=O)N2CCCC(Nc3ccc(C(C)C)cc3)C2)nc1 (configuration not stated) was tested, and the max response, negative = inhibition was inconclusive: -31.4% [inhibitor]. With O=C(O)COc1ccc2c(c1)O/C(=C\c1ccco1)C2=O the Potency was active: 23.8 µM. For COc1ccc(NC(=O)c2cc(-c3ccco3)nc3ccccc23)cn1, the Potency was inconclusive: 26.7 µM [inhibitor, single point]. With CCc1ccc(Nc2n[n+](-c3ccccc3)c(-c3ccc(OCc4ccccc4)cc3)s2)cc1 the Potency was inconclusive: 37.7 µM [inhibitor, single point]. CN1CCN(/C(=N\O)c2nonc2N)CC1 was tested, and the Potency was inconclusive: 26.7 µM [inhibitor, single point]. CCOc1ccc(NC(=S)N(CCc2c(C)[nH]c3ccccc23)Cc2cccnc2)cc1 was tested, and the max response, negative = inhibition was inactive: -5.21%. For CCCCC(=O)N1CCN(c2nc(-c3ccc(F)cc3)cs2)CC1, the max response, negative = inhibition was inactive: -6.64%. O=C(Cc1n[nH]c(=O)c2ccccc12)N/N=C/c1cc2c(cc1Cl)OCO2 was tested, and the Potency was inconclusive: 18.9 µM [inhibitor, partial curve]. For COc1cccc(OCC(=O)Nc2cc(Cl)ccc2Oc2ccccc2)c1, the Potency was inconclusive: 5.97 µM [inhibitor, full curve]. With CCC(=O)Oc1ccc(C/C(=N\O)c2ccc(O)cc2O)o1 the Potency was inconclusive: 18.9 µM [inhibitor, partial curve]. For CC(Sc1ccc(Cl)cc1)C(=O)N(C)CC(=O)Nc1ccc(N2CCOCC2)cc1 (configuration not stated), the Potency was inconclusive: 21.2 µM [inhibitor, single point]. For Cn1c(SCC(=O)c2ccccc2)nnc1C1CC1, the Potency was inconclusive: 23.8 µM [inhibitor, partial curve]. Nc1ccc2c(c1)OCCOCCOCCOCCOCCO2 was tested, and the max response, negative = inhibition was inactive: -0.38%. COC(=O)c1ccc(NCc2c(O)ccc(O)c2Br)cc1Cl was tested, and the Potency was inconclusive: 33.6 µM [inhibitor, single point]. COC(=O)CCN(C(C)=O)c1ccc(N)cc1 was tested, and the Potency was active: 26.7 µM. With Cc1c(NC(=O)c2cc(-c3ccc(O)cc3)on2)c(=O)n(-c2ccccc2)n1C the max response, negative = inhibition was inactive: -5.64%. With O=C1OC(CO)CN1Cc1ccccc1 (configuration not stated) the max response, negative = inhibition was inactive: -7.23%. CN(C(=O)c1sc2nc(N3CCCC3)c3c(c2c1N)CC(C)(C)OC3)c1ccccc1 was tested, and the max response, negative = inhibition was inconclusive: -33.2% [inhibitor]. In the case of COC(=O)c1nc(NC(=O)c2ccccc2Br)n[nH]1, the max response, negative = inhibition is reported as inconclusive: -36% [inhibitor]. With COc1ccc(NC(=O)/C(C#N)=C/c2ccc(Sc3nncn3C)c([N+](=O)[O-])c2)cc1 the Potency was inconclusive: 13.4 µM [inhibitor, partial curve]. In the case of COc1cccc2c1C(=O)c1c(O)c3c(c(O)c1C2=O)C[C@](O)(C(C)=O)C[C@H]3O[C@@H]1C[C@@H](N)[C@@H](O)[C@@H](C)O1, the Potency is reported as inconclusive: 7.52 µM [inhibitor, partial curve]. With NC(=O)c1ccsc1NC(=O)CCS(=O)(=O)c1ccc(Cl)cc1 the max response, negative = inhibition was inconclusive: -33% [inhibitor]. CCN1CC=C2C(C#N)=C(N)C(C#N)(C#N)C(c3cc(Cl)ccc3Cl)C2C1 (configuration not stated) was tested, and the Potency was inconclusive: 23.8 µM [inhibitor, partial curve]. With CC(C)CCNC(=O)C1CCN(S(=O)(=O)c2ccc(-n3cnnn3)cc2)CC1 the max response, negative = inhibition was inactive: -28%. In the case of COc1ccc(/C(N)=N/OC(=O)c2ccco2)cc1OC, the Potency is reported as inconclusive: 6.7 µM [inhibitor, full curve]. In the case of CCCC1Cc2c(sc(N)c2C#N)CO1 (configuration not stated), the Potency is reported as inconclusive: 26.7 µM [inhibitor, partial curve]. With CCOc1ccccc1NC(=O)CCS(=O)(=O)c1ccc2c(c1)CC(C)N2C(C)=O (configuration not stated) the Potency was inconclusive: 23.8 µM [inhibitor, partial curve]. With COC(=O)C1Cc2c([nH]c3ccccc23)C2(CCN(Cc3ccccc3)CC2)N1 (configuration not stated) the max response, negative = inhibition was inactive: -7.96%. For CC1(C)C(C(=O)OCC(Cl)(Cl)Cl)N2C(=O)C(NC(=O)Cc3ccccc3)C2S1=O (configuration not stated), the Potency was inconclusive: 16.8 µM [inhibitor, partial curve]. With O=C(CN(c1ccccc1)S(=O)(=O)c1ccccc1[N+](=O)[O-])Nc1ccccc1C(=O)N1CCOCC1 the Potency was inconclusive: 29.9 µM [inhibitor, single point]. Cc1ccc(C)c(SCc2nc3sc(C(=O)O)c(C)c3c(=O)[nH]2)c1 was tested, and the Potency was inconclusive: 37.7 µM [inhibitor, single point]. For CC/C(=N\NC(=O)CCC(=O)NCc1ccccc1)c1ccc(O)cc1, the Potency was inconclusive: 26.7 µM [inhibitor, partial curve]. With O=C(C[n+]1cn(C(F)F)c2ccccc21)c1ccc(OC(F)F)cc1 the Potency was inconclusive: 15 µM [inhibitor, partial curve]. For COCCN(C(=S)Nc1c(C)cc(C)cc1C)C(C)c1cccs1 (configuration not stated), the Potency was inconclusive: 23.8 µM [inhibitor, partial curve]. With Cc1cccc(C(=O)Nc2cccnc2Cl)c1 the Potency was active: 8.44 µM. O=C(N/N=C\c1ccc(Cl)cc1)C1=NOC2COC3(CCN(c4ccc([N+](=O)[O-])cc4)CC3)OCC12 (configuration not stated) was tested, and the Potency was inconclusive: 18.9 µM [inhibitor, partial curve]. For C#CCOCCOCCOCCNc1nc(N2CCN(C(=O)CCCCCCCCCCNC(=O)[C@H](CCCCN)n3cc(CCO)nn3)CC2)nc(N2CCN(C(=O)CCCCCCCCCCNC(=O)[C@H](CCCCN)n3cc(CCO)nn3)CC2)n1, the max response, negative = inhibition was inactive: -9.18%.
